Measurements as given in patent US20240343831A1 (Regeneron, published 2024).
These are yes or no findings as the source states them, for the method shown. Some results given as binding are weak or reduced against the parent protein; the word gives no strength.

Chains of the proteins cited; added tags and fusions are not shown. Residues count along the entry.
UniProt O15393, residues 106-492: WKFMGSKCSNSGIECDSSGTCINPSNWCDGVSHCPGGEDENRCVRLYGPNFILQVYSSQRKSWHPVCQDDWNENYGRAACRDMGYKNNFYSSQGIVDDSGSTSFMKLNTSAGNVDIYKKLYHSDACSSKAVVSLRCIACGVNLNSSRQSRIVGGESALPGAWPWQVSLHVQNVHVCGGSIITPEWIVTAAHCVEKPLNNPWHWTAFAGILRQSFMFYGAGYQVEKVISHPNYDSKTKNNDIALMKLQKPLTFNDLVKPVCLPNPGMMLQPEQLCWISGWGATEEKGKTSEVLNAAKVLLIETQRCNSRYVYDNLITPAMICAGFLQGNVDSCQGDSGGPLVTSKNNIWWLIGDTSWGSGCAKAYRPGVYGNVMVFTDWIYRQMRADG

B1: mAb8021 (antibody, human IgG4 S228P, kappa, V domains shown)
VH: QVQLVQSGAEVKKPGASVRVSCKASGYTFTNYGITWVRQAPGQGLEWMGGISVYNGNTEYAEKFQGRVSMTTDTSTTTAYLELRSLKSDDTAVYFCARGQLDYFDPWGQGTLVTVSS
VL: EIVMTQSPATLSVSPGERATLSCRASQSVRSNLAWYQQKPGQAPSLLIYGASTRATGIPARFSGSGSGTEFTLTISSLQSEDFAVYFCLQYNNWWTFGQGTKVEIKR
notes: also called anti-TMPRSS2 mAb
B2: mAb8029 (antibody, human IgG4 S228P, kappa, V domains shown)
VH: QLQLQESGPGLVKPSETLSLTCTVSGGSINSNSYYWGWIRQPPGKGLEWIGSIYYDRNTYYTPSLKSRVTISVDTSKNQFSLKLTSVTAADTAVYYCAREQVPGYYGMDVWGQGTTVTVSS
VL: DIQLTQSPSFLSASVGDRVTITCWASQGISRYLAWYQQKPGKTPKLLIYAASTLQSGVPSRFSGTGSGTDFTLTISNLQPEDFATYYCQQFDSYPWTFGQGTKVEIKR
notes: also called anti-TMPRSS2 mAb

Assays:
[1] = biological target: T1, ectodomain of human TMPRSS2-myc-myc-His (human, UniProt O15393 106-492); assay: SPR Biacore T200, 25 C and 37 C
T1 construct: extracellular domain; also called hTMPRSS2-MMH; human TMPRSS2-MMH

[2] = biological target: T1, ectodomain of human TMPRSS2-myc-myc-His; assay: SPR Biacore T200, 25 C and 37 C; species of TMPRSS2 not given

| Binder | binding [1] | binding [2] |
| --- | --- | --- |
| B1 | binds | binds |
| B2 |  | binds |
